Melanoma cell counts after drug treatment

From a melanoma drug combination screen (doi:10.1371/journal.pone.0140310); values rounded.

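Human melanoma cells were exposed to a pair of drugs for 72 h in 1,536-well plates and read by automated microscopy after fixing and staining. Each value is the count of nuclei relative to DMSO-treated wells, in %, so that 100 equals the control. Every drug was used at one fixed concentration, the higher of two screened. The file gives one value for each pair and line, without errors, so small differences may be noise.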 This is part of the screen, not chosen by result.

Compounds and concentrations:
CP-690550: C[C@@H]1CCN(C(=O)CC#N)C[C@@H]1N(C)c1ncnc2[nH]ccc12 at 5 µM
darinaparsin: C[As](C)SC[C@H](NC(=O)CC[C@H](N)C(=O)O)C(=O)NCC(=O)O at 2 µM
vismodegib: CS(=O)(=O)c1ccc(C(=O)Nc2ccc(Cl)c(-c3ccccn3)c2)c(Cl)c1 at 5 µM
KU-55933: O=c1cc(-c2cccc3c2Sc2ccccc2S3)oc(N2CCOCC2)c1 at 5 µM
cediranib: COc1cc2c(Oc3ccc4[nH]c(C)cc4c3F)ncnc2cc1OCCCN1CCCC1 at 2 µM
dorsomorphin: c1cc(-c2cnn3cc(-c4ccc(OCCN5CCCCC5)cc4)cnc23)ccn1 at 2 µM
sunitinib: CCN(CC)CCNC(=O)c1c(C)[nH]c(/C=C2\C(=O)Nc3ccc(F)cc32)c1C at 2 µM
veliparib: C[C@]1(c2nc3c(C(N)=O)cccc3[nH]2)CCCN1 at 7 µM
decitabine: Nc1ncn([C@H]2C[C@H](O)[C@@H](CO)O2)c(=O)n1 at 0.5 µM

{"drugs": "decitabine + KU-55933", "C32": 80.9, "COLO 792": 90.5, "COLO 829": 69.0, "WM451Lu": 78.3, "COLO 800": 57.7, "WM3619": 74.7}
{"drugs": "CP-690550 + decitabine", "C32": 82.1, "COLO 792": 60.5, "COLO 829": 83.4, "WM451Lu": 76.4, "COLO 800": 66.6, "WM3619": 74.2}
{"drugs": "sunitinib + decitabine", "C32": 94.8, "COLO 792": 57.6, "COLO 829": 106, "WM451Lu": 65.1, "COLO 800": 66.4, "WM3619": 90.0}
{"drugs": "cediranib + sunitinib", "C32": 56.3, "COLO 792": 33.9, "COLO 829": 114, "WM451Lu": 57.2, "COLO 800": 35.5, "WM3619": 71.4}
{"drugs": "KU-55933 + CP-690550", "C32": 92.6, "COLO 792": 75.5, "COLO 829": 96.7, "WM451Lu": 89.3, "COLO 800": 145, "WM3619": 83.6}
{"drugs": "sunitinib + darinaparsin", "C32": 70.9, "COLO 792": 36.4, "COLO 829": 93.5, "WM451Lu": 60.0, "COLO 800": 44.6, "WM3619": 67.7}
{"drugs": "veliparib + cediranib", "C32": 85.7, "COLO 792": 64.4, "COLO 829": 91.8, "WM451Lu": 95.4, "COLO 800": 46.3, "WM3619": 80.9}
{"drugs": "CP-690550 + dorsomorphin", "C32": 76.7, "COLO 792": 84.2, "COLO 829": 92.4, "WM451Lu": 81.6, "COLO 800": 80.6, "WM3619": 74.7}
{"drugs": "veliparib + KU-55933", "C32": 93.3, "COLO 792": 89.6, "COLO 829": 88.8, "WM451Lu": 74.3, "COLO 800": 53.2, "WM3619": 69.0}
{"drugs": "decitabine + dorsomorphin", "C32": 65.8, "COLO 792": 72.9, "COLO 829": 65.5, "WM451Lu": 57.2, "COLO 800": 117, "WM3619": 84.5}
{"drugs": "veliparib + vismodegib", "C32": 93.9, "COLO 792": 92.9, "COLO 829": 73.1, "WM451Lu": 81.0, "COLO 800": 109, "WM3619": 79.8}
{"drugs": "decitabine + cediranib", "C32": 92.6, "COLO 792": 61.3, "COLO 829": 80.6, "WM451Lu": 106, "COLO 800": 13.1, "WM3619": 89.9}
{"drugs": "dorsomorphin + sunitinib", "C32": 71.1, "COLO 792": 55.7, "COLO 829": 104, "WM451Lu": 54.2, "COLO 800": 97.2, "WM3619": 78.1}
{"drugs": "darinaparsin + veliparib", "C32": 83.4, "COLO 792": 84.2, "COLO 829": 79.5, "WM451Lu": 70.3, "COLO 800": 39.1, "WM3619": 83.8}
{"drugs": "darinaparsin + KU-55933", "C32": 92.6, "COLO 792": 90.6, "COLO 829": 99.4, "WM451Lu": 53.7, "COLO 800": 68.0, "WM3619": 61.4}
{"drugs": "decitabine + vismodegib", "C32": 99.3, "COLO 792": 100, "COLO 829": 84.7, "WM451Lu": 102, "COLO 800": 66.6, "WM3619": 72.3}
{"drugs": "darinaparsin + CP-690550", "C32": 79.1, "COLO 792": 119, "COLO 829": 78.5, "WM451Lu": 70.2, "COLO 800": 163, "WM3619": 71.0}
{"drugs": "cediranib + darinaparsin", "C32": 99.4, "COLO 792": 105, "COLO 829": 120, "WM451Lu": 73.7, "COLO 800": 61.9, "WM3619": 133}
{"drugs": "dorsomorphin + vismodegib", "C32": 51.9, "COLO 792": 79.5, "COLO 829": 92.6, "WM451Lu": 86.8, "COLO 800": 84.0, "WM3619": 66.4}

2 of the entries, repeated:

| Drugs | C32 | COLO 792 | COLO 829 | WM451Lu | COLO 800 | WM3619 |
|---|---|---|---|---|---|---|
| decitabine + KU-55933 | 80.9 | 90.5 | 69.0 | 78.3 | 57.7 | 74.7 |
| decitabine + dorsomorphin | 65.8 | 72.9 | 65.5 | 57.2 | 117 | 84.5 |